Structures can show the parent of a compound that is named as a salt. This is one part of the list. Single values are uncertain here, since repeats match poorly.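 A first-round screen of about ten thousand compounds sought those raising reporter output, using human embryonic kidney cells briefly transfected with a plasmid carrying a Renilla luciferase gene driven by the HSV-TK promoter.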
What follows are compounds tested on HEK 293FT (assay: log relative Renilla luciferase luminescence (reporter expression vs reference, reference not stated) (log (base not stated)); higher = higher recombinant reporter expression). Conditions: 10 µM; time after transfection 48 h.

SMILES	log
CC#C[C@]1(O)CC[C@H]2[C@@H]3CCC4=CC(=O)CCC4=C3[C@@H](c3ccc(N(C)C)cc3)C[C@@]21C [mifepristone]	-0.288
COc1cc(O)c2c(=O)c(OC)c(-c3ccc(OC)c(OC)c3)oc2c1 [retusin]	-0.0356
O=C(O)C1=CC(=C(c2ccc(O)c(C(=O)O)c2)c2ccc(O)c(C(=O)O)c2)C=CC1=O [aurin tricarboxylic acid]	-0.0051
C[C@@H]1C/C=C/C=C/C=C/C=C/[C@H](O[C@@H]2O[C@H](C)[C@@H](O)[C@H](N)[C@@H]2O)C[C@@H]2O[C@](O)(C[C@@H](O)C[C@H]3O[C@@H]3/C=C/C(=O)O1)C[C@H](O)[C@H]2C(=O)O [natamycin]	0.178
CC(C)[C@H](N)C(=O)OCCOCn1cnc2c(=O)nc(N)[nH]c21 [valacyclovir hydrochloride]	0.0873
NCCC(=O)N[C@@H](Cc1c[nH]cn1)C(=O)O [carnosine]	-0.188
CN(C(=O)CN(CCO)CC(=O)N(C)C(C)(C)Cc1ccccc1)C(C)(C)Cc1ccccc1 [oxethazaine]	0.0391
COC(=O)N/N=C/c1c[n+]([O-])c2ccccc2[n+]1[O-] [carbadox]	-0.0784
CC1(C)O[C@@H]2C[C@H]3[C@@H]4C[C@H](F)C5=CC(=O)C=C[C@]5(C)[C@@]4(F)[C@@H](O)C[C@]3(C)[C@]2(C(=O)CO)O1 [fluocinolone acetonide]	0.0787
CCCCCCCC/C=C\CCCCCCCC(=O)O.NCCO [ethanolamine oleate]	0.121
CC(C)=CCc1c2c(c3occ(-c4ccc(O)c(O)c4)c(=O)c3c1O)C=CC(C)(C)O2 [pomiferin]	0.075
COc1cc(NS(=O)(=O)c2ccc(N)cc2)ncn1 [sulfamonomethoxine]	0.0553
Cc1cc(C)nc(NS(=O)(=O)c2ccc(N)cc2)n1 [sulfamethazine]	0.193
COc1cc2c(cc1OC)Cc1cc(OC)c(OC)cc1Cc1cc(OC)c(OC)cc1C2 [cycloveratrylene]	-0.0219
N[C@@H](CC(=O)N1CCn2c(nnc2C(F)(F)F)C1)Cc1cc(F)c(F)cc1F [sitagliptin monophosphate monohydrate]	0.0818
C[C@@H]1O[C@@H](O[C@H]2[C@H](Oc3cc(O)c4c(c3)O[C@H](c3ccc(O)cc3)CC4=O)O[C@H](CO)[C@@H](O)[C@@H]2O)[C@H](O)[C@H](O)[C@H]1O [naringin]	0.0492
C=COCC(F)(F)F [fluroxene]	-0.273
Cc1oc(=O)oc1CN1CCN(c2cc3c(cc2F)c(=O)c(C(=O)O)c2n3C(C)S2)CC1 (configuration not stated) [prulifloxacin]	0.0118
COc1cc(O)c(C(=O)/C=C/c2ccc(O)c(OC)c2)c(OC)c1 [2',4-dihydroxy-3,4',6'-trimethoxychalcone]	0.047
CC(=O)OCC(=O)[C@@]12OC3(CCCC3)O[C@@H]1C[C@H]1[C@@H]3CCC4=CC(=O)C=C[C@]4(C)[C@@]3(F)[C@@H](O)C[C@@]12C [amcinonide]	0.0887
C[C@@H]1O[C@@H](OC[C@H]2O[C@@H](Oc3c(-c4ccc(O)c(O)c4)oc4cc(O)cc(O)c4c3=O)[C@H](O)[C@@H](O)[C@@H]2O)[C@H](O)[C@H](O)[C@H]1O [rutin]	0.19
CCCC(=O)Nc1ccc(OCC(O)CNC(C)C)c(C(C)=O)c1 (configuration not stated) [acebutolol hydrochloride]	-0.225
CO/N=C(\C(=O)N[C@@H]1C(=O)N2C(C(=O)O)=C(CSC(=O)c3ccco3)CS[C@H]12)c1csc(N)n1 [ceftiofur hydrochloride]	-0.084
N=C(N)c1ccc(N=NNc2ccc(C(=N)N)cc2)cc1 [diminazene aceturate]	0.0481

SMILES	log
O=C(Nc1ccccc1)OCC(CN1CCCCC1)OC(=O)Nc1ccccc1 (configuration not stated) [diperodon hydrochloride]	-0.00278
COc1c(O)cc(O)cc1O [iretol]	-0.0111
CCCCC1C(=O)N(c2ccccc2)N(c2ccccc2)C1=O [phenylbutazone]	-0.0898
O=C(O)/C=C/C=C/c1ccccc1 [juarezic acid]	0.166
COCCCOc1cc(C[C@@H](C[C@H](N)[C@@H](O)C[C@H](C(=O)NCC(C)(C)C(N)=O)C(C)C)C(C)C)ccc1OC [aliskiren hemifumarate]	-0.0213
CCCCOC(=O)c1ccc(O)cc1 [butyl paraben]	-0.176
C#C[C@]1(OC(C)=O)CC[C@H]2[C@@H]3CCC4=CC(=O)CC[C@@H]4[C@H]3CC[C@@]21C [norethindrone acetate]	0.0668
CCCc1nc2c(C)cc(-c3nc4ccccc4n3C)cc2n1Cc1ccc(-c2ccccc2C(=O)O)cc1 [telmisartan]	-0.13
CC(=O)/N=c1/sc(S(N)(=O)=O)nn1C [methazolamide]	0.0241
CC1=CC(=O)c2ccccc2C1=O [menadione]	-0.222
COc1ccc(-c2cc(=O)c3c(O)c(OC)c(OC)c(OC)c3o2)cc1OC [demethylnobiletin]	0.102
N=C(N)N1CCc2ccccc2C1 [debrisoquin sulfate]	0.0342
COc1cc(C(C)=O)cc(OC)c1O [acetosyringone]	0.143
CC(C)=CCC/C(C)=C\CO [nerol]	0.17
COCCCOc1ccnc(C[S+]([O-])c2nc3ccccc3[nH]2)c1C (configuration not stated) [rabeprazole sodium]	-0.0622
O=C(O)Cc1cc(I)c(Oc2ccc(O)c(I)c2)c(I)c1 [tiratricol]	-0.0573
Cc1ccc(C(=O)C(C)CN2CCCCC2)cc1 (configuration not stated) [tolperisone hydrochloride]	0.0807
CNCC[C@@H](Oc1ccccc1C)c1ccccc1 [atomoxetine hydrochloride]	0.079
O=C(CCCCC(=O)Nc1c(I)cc(I)c(C(=O)O)c1I)Nc1c(I)cc(I)c(C(=O)O)c1I [iodipamide]	-0.204
CC(C)(C)NCC(O)COc1cccc2c1CC(O)C(O)C2 (configuration not stated) [nadolol]	-0.0348
CN(C)CC(=O)OC[C@@H](O)[C@@H](O)[C@H](O)[C@@H](O)C(=O)O [pangamic acid sodium]	-0.0505
Cc1cc(O)cc(O)c1C(=O)O [orsellinic acid]	0.0989
CC[C@H](C)C(=O)O[C@H]1C[C@H](O)C=C2C=C[C@H](C)[C@H](CC[C@@H](O)C[C@@H](O)CC(=O)O)[C@H]21 [pravastatin sodium]	0.0267
CC1=C(C(=O)O)N2C(=O)[C@@H](NC(=O)[C@H](N)c3ccccc3)[C@H]2SC1 [cephalexin]	0.00121

SMILES	log
Cc1nccn1CC1CCc2c(c3ccccc3n2C)C1=O (configuration not stated) [ondansetron]	-0.0569
NC(=O)c1cc[n+](CC2=C(C(=O)[O-])N3C(=O)[C@@H](NC(=O)Cc4cccs4)[C@H]3SC2)cc1 [cefalonium]	0.0443
O=C1C(O)=C(O)C(=O)C(O)=C1O [tetroquinone]	0.202
CC(=O)NC[C@H]1CN(c2ccc(N3CCOCC3)c(F)c2)C(=O)O1 [linezolid]	-0.0491
Cc1c2oc3c(C)ccc(C(=O)N[C@@H]4C(=O)N[C@H](C(C)C)C(=O)N5CCC[C@H]5C(=O)N(C)CC(=O)N(C)[C@@H](C(C)C)C(=O)O[C@@H]4C)c3nc-2c(C(=O)N[C@@H]2C(=O)N[C@H](C(C)C)C(=O)N3CCC[C@H]3C(=O)N(C)CC(=O)N(C)[C@@H](C(C)C)C(=O)O[C@@H]2C)c(N)c1=O [dactinomycin]	-1.57
COc1ccc2c(c1)c(CC(=O)OCC(=O)O)c(C)n2C(=O)c1ccc(Cl)cc1 [acemetacin]	0.0552
COc1ccc2cc3[n+](cc2c1OC)CCc1cc2c(cc1-3)OCO2 [berberine chloride]	0.0578
COc1ccc2c(c1)OC[C@@H](Cc1ccc(OC)c(OC)c1)[C@@H]2O [3-deshydroxysappanol trimethyl ether]	0.0596
O=C(c1cccnc1)N1CCOCC1 [nicopholine]	0.0983
OCC(S)CS (configuration not stated) [dimercaprol]	-0.32
COC(=O)C[C@H]1C(C)(C)C(=O)[C@@H]2CC3C4=CC(=O)O[C@@H](c5ccoc5)[C@]4(C)CC[C@@H]3[C@@]1(C)C2=O (some centres not stated) [carapin]	0.265
CC(C)=CC1C(C(=O)O)C1(C)C (configuration not stated) [chrysanthemic acid]	-0.0709
CC(C)Cn1c(=O)n(C)c(=O)c2nc[nH]c21 [isobutylmethylxanthine]	-0.0457
CC[C@@]1(O)C(=O)OCc2c1cc1n(c2=O)Cc2cc3c(CN(C)C)c(O)ccc3nc2-1 [topotecan hydrochloride]	-0.938
Nc1nnc(-c2cccc(Cl)c2Cl)c(N)n1 [lamotrigine]	-0.056
O=C(O)/C=C(\CC(=O)O)C(=O)O [aconitic acid]	0.0437
Nc1nc(=O)[nH]cc1F [flucytosine]	0.144
Cc1c(C)c2c(c(C)c1O)CCC(C)(CCCC(C)CCCC(C)CCCC(C)C)O2 (stereo not drawn) [alpha-tochopherol]	-0.0153
CC(=O)O[C@]1(C(C)=O)CC[C@H]2[C@@H]3C=C(C)C4=CC(=O)CC[C@]4(C)[C@H]3CC[C@@]21C [megestrol acetate]	-0.167
NC[C@H]1O[C@H](O[C@H]2[C@H](O)[C@@H](O[C@H]3O[C@H](CO)[C@@H](O)[C@H](N)[C@H]3O)[C@H](N)C[C@@H]2N)[C@H](N)[C@@H](O)[C@@H]1O [bekanamycin sulfate]	-0.0543
COc1cc(O)c(C(=O)c2ccccc2)cc1O [cearoin]	0.0987
C#CC1(O)CC[C@H]2[C@@H]3CCC4=CC(=O)CC[C@@H]4[C@H]3CC[C@@]21CC (some centres not stated) [norgestrel]	-0.278
OCC(O)C(O)C(O)CO (configuration not stated) [adonitol]	0.0873
OCC(O)C(O)C(O)CO (configuration not stated) [arabitol(d)]	0.0403

An excerpt of these results, comma-delimited.
SMILES,log
O=C1C(O)=C(O)C(=O)C(O)=C1O [tetroquinone],0.202
Cc1c2oc3c(C)ccc(C(=O)N[C@@H]4C(=O)N[C@H](C(C)C)C(=O)N5CCC[C@H]5C(=O)N(C)CC(=O)N(C)[C@@H](C(C)C)C(=O)O[C@@H]4C)c3nc-2c(C(=O)N[C@@H]2C(=O)N[C@H](C(C)C)C(=O)N3CCC[C@H]3C(=O)N(C)CC(=O)N(C)[C@@H](C(C)C)C(=O)O[C@@H]2C)c(N)c1=O [dactinomycin],-1.57
COc1ccc2cc3[n+](cc2c1OC)CCc1cc2c(cc1-3)OCO2 [berberine chloride],0.0578
COc1ccc2c(c1)OC[C@@H](Cc1ccc(OC)c(OC)c1)[C@@H]2O [3-deshydroxysappanol trimethyl ether],0.0596
O=C(c1cccnc1)N1CCOCC1 [nicopholine],0.0983
COC(=O)C[C@H]1C(C)(C)C(=O)[C@@H]2CC3C4=CC(=O)O[C@@H](c5ccoc5)[C@]4(C)CC[C@@H]3[C@@]1(C)C2=O (some centres not stated) [carapin],0.265
CC(C)=CC1C(C(=O)O)C1(C)C (configuration not stated) [chrysanthemic acid],-0.0709
CC(C)Cn1c(=O)n(C)c(=O)c2nc[nH]c21 [isobutylmethylxanthine],-0.0457
Nc1nnc(-c2cccc(Cl)c2Cl)c(N)n1 [lamotrigine],-0.056
Nc1nc(=O)[nH]cc1F [flucytosine],0.144
Cc1c(C)c2c(c(C)c1O)CCC(C)(CCCC(C)CCCC(C)CCCC(C)C)O2 (stereo not drawn) [alpha-tochopherol],-0.0153
CC(=O)O[C@]1(C(C)=O)CC[C@H]2[C@@H]3C=C(C)C4=CC(=O)CC[C@]4(C)[C@H]3CC[C@@]21C [megestrol acetate],-0.167
NC[C@H]1O[C@H](O[C@H]2[C@H](O)[C@@H](O[C@H]3O[C@H](CO)[C@@H](O)[C@H](N)[C@H]3O)[C@H](N)C[C@@H]2N)[C@H](N)[C@@H](O)[C@@H]1O [bekanamycin sulfate],-0.0543
COc1cc(O)c(C(=O)c2ccccc2)cc1O [cearoin],0.0987
OCC(O)C(O)C(O)CO (configuration not stated) [adonitol],0.0873
